Measurements reported in PubChem BioAssay AID504774 (Drosophila RNAi Screening Center, 2011).

Screen: 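Fly genes whose loss alters survival after alkylation damage to DNA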 (primary screen)
System: Drosophila Kc167 cells
Reagent: long dsRNA against Drosophila genes, about 0.25 µg dsRNA per well
Time to read-out: about 6 days: 3 days knock-down, then 3 days with or without MMS
Treatment: methyl methanesulphonate 0.004% (w/v) for 3 days after knock-down
Detection: 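Viability in wells given MMS, read as ATP luminescence, normalised by quantiles plate by plate and averaged across replicates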
Scale: mean viability with MMS: higher = more surviving cells after MMS
The deposit covers about 23,000 reagents; this is an unselected part of those with a known target gene and a result. 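Values are quantile-normalised luminescence on an arbitrary scale; higher means more cells surviving MMS.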 Reagents against one gene are numbered here. Not all columns of the deposit are shown. Reagent sequences are not shown.

Target gene	dsRNA no.	mean viability with MMS
CG33107	1	3.53e6
Ance-5	1	3.53e6
spas	1	3.40e6
CG13705	1	3.59e6
CG13705	2	3.65e6
IP3K2	1	3.58e6
IP3K2	2	3.56e6
IP3K2	3	3.67e6
CG6550	1	3.71e6
CG4558	1	3.59e6
SP2353	1	3.22e6
rdx	1	3.17e6
rdx	2	3.60e6
rdx	3	3.71e6

The list goes on (2 carried over from the part before).
Target gene	dsRNA no.	mean viability with MMS
rdx	2	3.60e6
rdx	3	3.71e6
CG8925	1	3.50e6
CG8925	2	3.65e6
CG8925	3	3.63e6
Rhp	1	3.56e6
CG4678	1	3.57e6
CG4678	2	3.61e6
CtsK1	1	3.37e6
ATPsynB	1	3.33e6
CG14573	1	3.49e6
CG12432 (retired record)	1	3.56e6
Ir84a	1	3.39e6
dgo	1	3.57e6
Mst84B	1	3.60e6
CG3744	1	3.92e6
